Source: the supplement of paper PMC10849652
Some of the results follow.

Sequences of proteins named here, by UniProt entry; tags and fusion partners are left off. A change or cut given only in a name is not applied to a line headed by its entry.
UniProt P58004: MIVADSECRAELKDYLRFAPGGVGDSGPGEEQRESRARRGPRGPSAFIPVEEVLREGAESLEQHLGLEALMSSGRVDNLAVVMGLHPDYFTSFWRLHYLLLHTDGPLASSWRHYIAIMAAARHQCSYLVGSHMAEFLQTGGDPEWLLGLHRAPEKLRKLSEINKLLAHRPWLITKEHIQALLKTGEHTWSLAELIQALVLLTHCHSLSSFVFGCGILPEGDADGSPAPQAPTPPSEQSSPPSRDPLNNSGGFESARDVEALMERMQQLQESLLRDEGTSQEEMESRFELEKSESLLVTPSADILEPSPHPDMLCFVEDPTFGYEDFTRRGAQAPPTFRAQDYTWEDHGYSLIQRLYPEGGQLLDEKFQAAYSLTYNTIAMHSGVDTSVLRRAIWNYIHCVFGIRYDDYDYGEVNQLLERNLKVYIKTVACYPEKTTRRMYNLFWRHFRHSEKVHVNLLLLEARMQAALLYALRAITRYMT
UniProt Q96EE3: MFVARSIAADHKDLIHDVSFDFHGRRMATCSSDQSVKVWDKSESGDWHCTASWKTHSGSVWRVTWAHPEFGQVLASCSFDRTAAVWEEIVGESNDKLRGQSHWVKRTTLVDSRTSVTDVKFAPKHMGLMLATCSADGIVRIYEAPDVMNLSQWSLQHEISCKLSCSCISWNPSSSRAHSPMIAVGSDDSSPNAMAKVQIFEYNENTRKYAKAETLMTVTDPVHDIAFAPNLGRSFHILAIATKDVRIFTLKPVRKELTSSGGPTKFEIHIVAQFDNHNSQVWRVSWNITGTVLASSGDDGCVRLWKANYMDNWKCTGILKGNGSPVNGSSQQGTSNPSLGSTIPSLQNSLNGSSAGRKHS
UniProt Q16181: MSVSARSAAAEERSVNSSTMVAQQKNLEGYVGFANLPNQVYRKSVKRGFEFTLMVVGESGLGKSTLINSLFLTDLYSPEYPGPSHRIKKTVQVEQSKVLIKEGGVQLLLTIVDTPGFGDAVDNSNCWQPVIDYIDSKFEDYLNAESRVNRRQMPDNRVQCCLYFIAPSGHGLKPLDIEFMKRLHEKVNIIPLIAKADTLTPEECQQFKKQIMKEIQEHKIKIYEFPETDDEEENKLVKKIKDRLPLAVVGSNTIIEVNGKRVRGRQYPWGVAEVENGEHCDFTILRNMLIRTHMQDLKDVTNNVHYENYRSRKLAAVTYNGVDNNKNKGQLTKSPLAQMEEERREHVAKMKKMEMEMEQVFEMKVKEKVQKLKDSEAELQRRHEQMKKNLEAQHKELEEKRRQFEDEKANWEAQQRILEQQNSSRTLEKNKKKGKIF
UniProt P60059: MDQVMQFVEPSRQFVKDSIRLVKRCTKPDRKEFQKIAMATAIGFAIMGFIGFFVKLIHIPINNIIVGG
UniProt Q8NDZ2: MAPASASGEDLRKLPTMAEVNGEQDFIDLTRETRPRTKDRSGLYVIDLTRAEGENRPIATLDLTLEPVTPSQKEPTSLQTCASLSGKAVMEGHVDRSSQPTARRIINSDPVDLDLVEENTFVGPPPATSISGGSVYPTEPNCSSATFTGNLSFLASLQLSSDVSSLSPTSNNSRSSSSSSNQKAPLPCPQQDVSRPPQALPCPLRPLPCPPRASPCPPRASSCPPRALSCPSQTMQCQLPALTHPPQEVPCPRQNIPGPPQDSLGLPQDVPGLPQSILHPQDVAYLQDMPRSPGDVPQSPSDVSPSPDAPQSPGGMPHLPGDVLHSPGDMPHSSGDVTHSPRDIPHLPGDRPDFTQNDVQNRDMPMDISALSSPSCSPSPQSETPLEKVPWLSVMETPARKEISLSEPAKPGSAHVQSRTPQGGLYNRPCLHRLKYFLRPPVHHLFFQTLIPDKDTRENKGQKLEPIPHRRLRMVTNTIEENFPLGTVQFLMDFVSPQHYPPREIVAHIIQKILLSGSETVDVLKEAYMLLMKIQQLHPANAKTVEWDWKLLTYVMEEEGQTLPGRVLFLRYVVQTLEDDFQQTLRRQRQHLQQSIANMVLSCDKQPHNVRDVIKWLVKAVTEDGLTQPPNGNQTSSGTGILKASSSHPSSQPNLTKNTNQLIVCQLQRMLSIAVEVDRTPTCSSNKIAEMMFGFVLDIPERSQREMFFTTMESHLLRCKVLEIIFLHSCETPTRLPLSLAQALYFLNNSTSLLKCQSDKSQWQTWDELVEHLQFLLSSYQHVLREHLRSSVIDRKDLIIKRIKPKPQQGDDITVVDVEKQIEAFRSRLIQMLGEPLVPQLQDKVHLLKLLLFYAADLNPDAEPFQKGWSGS
UniProt O75563, whole entry, looked up: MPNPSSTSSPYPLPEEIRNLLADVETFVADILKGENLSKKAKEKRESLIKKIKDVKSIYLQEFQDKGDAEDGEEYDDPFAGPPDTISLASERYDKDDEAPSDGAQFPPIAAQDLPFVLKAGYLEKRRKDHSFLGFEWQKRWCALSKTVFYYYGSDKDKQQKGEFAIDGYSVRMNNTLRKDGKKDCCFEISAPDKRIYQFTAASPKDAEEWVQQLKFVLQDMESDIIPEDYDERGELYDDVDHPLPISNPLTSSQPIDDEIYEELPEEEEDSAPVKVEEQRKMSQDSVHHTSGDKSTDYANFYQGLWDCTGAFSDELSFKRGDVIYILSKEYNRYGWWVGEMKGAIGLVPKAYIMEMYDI
UniProt Q9NTG7: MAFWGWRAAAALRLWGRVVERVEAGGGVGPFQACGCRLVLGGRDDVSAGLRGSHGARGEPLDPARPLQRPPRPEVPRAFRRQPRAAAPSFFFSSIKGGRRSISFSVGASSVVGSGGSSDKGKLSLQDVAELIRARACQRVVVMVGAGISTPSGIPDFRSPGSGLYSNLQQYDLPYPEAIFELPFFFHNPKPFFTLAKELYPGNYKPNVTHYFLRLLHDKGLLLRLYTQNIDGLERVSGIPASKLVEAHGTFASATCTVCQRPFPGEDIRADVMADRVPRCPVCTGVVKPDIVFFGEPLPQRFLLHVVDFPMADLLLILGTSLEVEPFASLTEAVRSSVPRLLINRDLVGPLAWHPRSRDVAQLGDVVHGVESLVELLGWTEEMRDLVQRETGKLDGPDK
UniProt Q587I9: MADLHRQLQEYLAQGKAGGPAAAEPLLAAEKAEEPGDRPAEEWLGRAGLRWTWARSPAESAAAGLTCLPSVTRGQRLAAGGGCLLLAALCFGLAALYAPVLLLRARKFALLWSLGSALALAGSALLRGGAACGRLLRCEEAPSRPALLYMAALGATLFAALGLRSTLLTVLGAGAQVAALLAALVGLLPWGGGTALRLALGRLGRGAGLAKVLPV
UniProt Q9P0V9: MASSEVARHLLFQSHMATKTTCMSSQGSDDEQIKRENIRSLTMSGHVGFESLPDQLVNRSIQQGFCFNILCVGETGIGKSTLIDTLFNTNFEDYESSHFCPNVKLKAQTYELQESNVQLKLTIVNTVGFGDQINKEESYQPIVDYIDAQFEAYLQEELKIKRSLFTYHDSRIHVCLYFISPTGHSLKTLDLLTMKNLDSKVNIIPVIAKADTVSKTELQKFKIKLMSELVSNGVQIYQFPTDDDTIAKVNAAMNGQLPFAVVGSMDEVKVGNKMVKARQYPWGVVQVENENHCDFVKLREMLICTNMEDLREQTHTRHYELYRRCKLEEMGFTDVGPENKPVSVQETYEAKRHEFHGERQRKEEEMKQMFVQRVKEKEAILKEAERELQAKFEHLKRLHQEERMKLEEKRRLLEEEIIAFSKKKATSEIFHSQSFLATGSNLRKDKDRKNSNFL
UniProt Q9NP31, whole entry, looked up: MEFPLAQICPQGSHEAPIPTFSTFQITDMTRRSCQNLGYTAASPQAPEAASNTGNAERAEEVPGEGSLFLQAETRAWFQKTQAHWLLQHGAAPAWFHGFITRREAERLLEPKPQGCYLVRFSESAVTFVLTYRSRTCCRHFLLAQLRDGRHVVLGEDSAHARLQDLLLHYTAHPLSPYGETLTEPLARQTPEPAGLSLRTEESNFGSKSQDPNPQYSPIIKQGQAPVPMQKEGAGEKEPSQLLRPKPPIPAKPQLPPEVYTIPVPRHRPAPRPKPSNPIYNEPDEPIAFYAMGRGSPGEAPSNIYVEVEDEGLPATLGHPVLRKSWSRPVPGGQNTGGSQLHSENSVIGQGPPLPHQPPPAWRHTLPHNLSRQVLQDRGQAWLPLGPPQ
UniProt P55822: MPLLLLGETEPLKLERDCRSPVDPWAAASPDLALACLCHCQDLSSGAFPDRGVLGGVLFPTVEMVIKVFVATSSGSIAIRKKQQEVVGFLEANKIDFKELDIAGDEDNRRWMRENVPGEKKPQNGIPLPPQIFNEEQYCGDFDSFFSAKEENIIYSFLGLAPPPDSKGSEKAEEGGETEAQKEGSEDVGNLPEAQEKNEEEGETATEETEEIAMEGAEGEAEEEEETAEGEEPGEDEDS
UniProt O14796: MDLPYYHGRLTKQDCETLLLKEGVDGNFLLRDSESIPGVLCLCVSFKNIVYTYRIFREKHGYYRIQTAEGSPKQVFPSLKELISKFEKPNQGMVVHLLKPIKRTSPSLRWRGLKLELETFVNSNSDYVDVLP
UniProt Q96JX3: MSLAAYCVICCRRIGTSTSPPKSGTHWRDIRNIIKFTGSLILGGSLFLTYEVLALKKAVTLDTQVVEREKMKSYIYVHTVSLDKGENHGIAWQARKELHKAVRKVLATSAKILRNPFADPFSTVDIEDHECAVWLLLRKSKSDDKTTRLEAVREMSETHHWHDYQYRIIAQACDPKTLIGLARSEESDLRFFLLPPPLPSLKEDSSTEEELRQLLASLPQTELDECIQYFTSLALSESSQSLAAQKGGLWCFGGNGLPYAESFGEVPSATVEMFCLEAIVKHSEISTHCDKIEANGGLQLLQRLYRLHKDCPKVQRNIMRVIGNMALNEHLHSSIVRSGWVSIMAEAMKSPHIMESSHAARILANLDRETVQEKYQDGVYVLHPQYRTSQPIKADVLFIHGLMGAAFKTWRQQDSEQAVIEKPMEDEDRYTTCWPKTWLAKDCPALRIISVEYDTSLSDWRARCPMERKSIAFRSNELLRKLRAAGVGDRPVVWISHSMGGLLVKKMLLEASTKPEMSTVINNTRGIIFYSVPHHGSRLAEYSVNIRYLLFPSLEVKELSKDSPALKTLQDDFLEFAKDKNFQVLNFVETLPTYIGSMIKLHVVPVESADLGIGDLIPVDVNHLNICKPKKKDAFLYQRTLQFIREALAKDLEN
UniProt Q8IX90, whole entry, looked up: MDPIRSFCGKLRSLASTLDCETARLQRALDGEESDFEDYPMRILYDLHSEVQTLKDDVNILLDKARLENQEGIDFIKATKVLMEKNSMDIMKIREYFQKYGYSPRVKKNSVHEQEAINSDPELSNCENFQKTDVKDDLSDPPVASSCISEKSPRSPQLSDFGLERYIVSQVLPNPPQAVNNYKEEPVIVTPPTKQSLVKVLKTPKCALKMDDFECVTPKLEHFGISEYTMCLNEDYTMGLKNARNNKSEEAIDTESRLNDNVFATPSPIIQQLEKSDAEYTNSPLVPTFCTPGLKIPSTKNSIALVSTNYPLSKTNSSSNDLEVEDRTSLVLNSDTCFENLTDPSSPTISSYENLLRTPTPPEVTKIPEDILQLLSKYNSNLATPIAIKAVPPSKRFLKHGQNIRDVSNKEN
UniProt P84101: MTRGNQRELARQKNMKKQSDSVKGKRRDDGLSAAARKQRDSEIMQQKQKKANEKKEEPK
UniProt Q9NRX5: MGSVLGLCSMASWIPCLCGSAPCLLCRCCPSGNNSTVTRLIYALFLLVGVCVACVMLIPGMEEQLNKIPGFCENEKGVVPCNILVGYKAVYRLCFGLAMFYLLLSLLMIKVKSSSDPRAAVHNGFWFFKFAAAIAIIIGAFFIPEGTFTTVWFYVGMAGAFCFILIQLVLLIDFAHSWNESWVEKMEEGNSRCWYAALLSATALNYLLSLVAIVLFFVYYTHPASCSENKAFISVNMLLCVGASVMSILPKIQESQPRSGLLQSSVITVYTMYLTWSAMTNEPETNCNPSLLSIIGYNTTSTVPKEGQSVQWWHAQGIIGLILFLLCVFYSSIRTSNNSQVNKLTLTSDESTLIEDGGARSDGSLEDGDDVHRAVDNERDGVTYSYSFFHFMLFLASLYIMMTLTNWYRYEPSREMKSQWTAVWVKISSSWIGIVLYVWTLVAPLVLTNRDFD
UniProt Q9Y6D0, whole entry, looked up: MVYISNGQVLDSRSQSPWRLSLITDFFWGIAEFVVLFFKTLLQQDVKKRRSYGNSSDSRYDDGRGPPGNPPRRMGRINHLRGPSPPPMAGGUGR
UniProt P05546: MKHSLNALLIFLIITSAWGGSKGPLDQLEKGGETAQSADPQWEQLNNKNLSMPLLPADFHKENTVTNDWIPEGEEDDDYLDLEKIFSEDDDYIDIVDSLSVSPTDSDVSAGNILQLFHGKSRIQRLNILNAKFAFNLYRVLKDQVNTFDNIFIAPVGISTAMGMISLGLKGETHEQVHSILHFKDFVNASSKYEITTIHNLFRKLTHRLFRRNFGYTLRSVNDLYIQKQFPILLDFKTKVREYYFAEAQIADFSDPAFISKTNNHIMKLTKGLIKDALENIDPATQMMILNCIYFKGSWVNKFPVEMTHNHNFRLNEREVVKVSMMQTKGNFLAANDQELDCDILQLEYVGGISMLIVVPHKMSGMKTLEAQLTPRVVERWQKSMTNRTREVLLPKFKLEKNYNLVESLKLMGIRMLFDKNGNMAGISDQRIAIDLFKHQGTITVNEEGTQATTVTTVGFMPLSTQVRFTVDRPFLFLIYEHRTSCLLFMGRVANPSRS

Experiments:
Assay in all cases: log2 fold change, soluble protein after heating vs DMSO (PISA); higher = thermal stabilisation; K562 cells, 10 uM, 30 min; active = over 0.2 and 3.5 SD of the protein, either way, in both replicates (recomputed)
[1] = compound: C#Cc1cccc(Nc2ncnc3cc(OCCOC)c(OCCOC)cc23)c1 [erlotinib]
How it was run: (§1)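 Soluble protein was defined as the supernatant after 21,000xg for 90 min. It came from K562 cells at 2×10^6 cells/mL given 10 μM compound for 30 min, heated in aliquots for 3 min across 48°C-58°C, pooled, and extracted in PBS with 0.5% NP-40 at 4°C, and was quantified by TMTpro 16plex LC-MS/MS with equalised channel sums. Thermal stability against control samples, from duplicates, is reported as log2 fold change.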

[2] = compound: C/C(=N\NC(=O)C1=CC(=CC=C1)S(=O)(=O)N2CCOCC2)/C3=C(C=CC(=C3)Cl)O
How it was run: as §1

[3] = compound: C1=CC(=C(C=C1Cl)C2=NC3=NC=CN=C3C(=N2)NC4=CC=NC=C4)F
How it was run: as §1

[4] = compound: C1=CC(=CC=C1C2=NC3=C(N2)C=C(C=C3)C(=O)N)OC4=CC=C(C=C4)Cl
How it was run: as §1

[5] = compound: C1=CC2=C(C=CC(=C2)/C=C\3/C(=O)NC(=NCC4=CC=CS4)S3)N=C1
How it was run: as §1

[6] = compound: C1=CC2=NC=CN=C2C=C1/C=C/3\C(=O)NC(=O)S3
How it was run: as §1

[7] = compound: C1=CC=C(C=C1)C2=NC(=C(N2)C3=CC=NC=C3)C4=CC(=C(C=C4)Cl)O
How it was run: as §1

[8] = compound: C1=CC=C2C(=C1)C3=NNC4=CC=CC(=C43)C2=O
How it was run: as §1

[9] = compound: C1CCN(C1)C(=O)NC2=CC=CC(=C2)NC3=NC=C(C(=N3)NCCC4=CN=CN4)Br
How it was run: as §1

[10] = compound: C1CN(CCC1(CC2=CC=C(C=C2)Cl)N)C3=NC=NC4=C3C=CN4
How it was run: as §1

Row | Target | log2 fold change [1] | log2 fold change [2] | log2 fold change [3] | log2 fold change [4] | log2 fold change [5] | log2 fold change [6] | log2 fold change [7] | log2 fold change [8] | log2 fold change [9] | log2 fold change [10]
1 | SESN2 (UniProt P58004) | inactive: 0.154 | inactive: 0.108 | inactive: -0.039 | inactive: -0.003 | inactive: 0.016 | inactive: 0.007 | inactive: -0.009 | inactive: -0.008 | inactive: -0.041 | inactive: -0.109
2 | SFXN5 (UniProt Q8TD22) | inactive: -0.077 | inactive: 0.09 | inactive: -0.02 | inactive: 0.082 | inactive: -0.003 | inactive: 0.023 | inactive: 0.081 | inactive: -0.001 | inactive: -0.066 | inactive: -0.045
3 | SERBP1 (UniProt Q8NC51) | inactive: -0.04 | inactive: -0.101 | inactive: -0.231 | inactive: -0.004 | inactive: 0.036 | inactive: 0.011 | inactive: -0.083 | inactive: -0.005 | inactive: 0.051 | inactive: -0.03
4 | SEH1L isoform 1 (UniProt Q96EE3) | inactive: 0.018 | inactive: 0.073 | inactive: 0.012 | inactive: 0.043 | inactive: 0.049 | inactive: 0.064 | inactive: 0 | inactive: -0.06 | inactive: -0.02 | inactive: 0.035
5 | SEPTIN7 (UniProt Q16181) | inactive: 0.019 | inactive: 0.059 | inactive: 0.039 | inactive: -0.015 | inactive: -0.021 | inactive: 0.005 | inactive: 0.11 | inactive: 0.102 | inactive: -0.01 | inactive: 0.029
6 | SEC61G (UniProt P60059) | inactive: 0.031 |  | inactive: -0.223 | inactive: 0.183 |  | inactive: 0.067 | inactive: -0.122 |  |  | 
7 | SIMC1 (UniProt Q8NDZ2) | inactive: 0.182 |  |  | inactive: 0.057 |  |  |  |  |  | 
8 | SKAP2 (UniProt O75563) | inactive: 0.099 | inactive: 0.04 |  | inactive: 0.052 | inactive: -0.081 |  | inactive: 0.009 | inactive: -0.019 | inactive: 0.232 | inactive: 0.294
9 | SHOC2 (UniProt Q9UQ13) | inactive: -0.03 | inactive: 0.048 | inactive: 0.004 | inactive: -0.026 | inactive: 0.051 | inactive: 0.028 | inactive: -0.028 | inactive: -0.001 | inactive: -0.076 | inactive: -0.038
10 | SIRT3 (UniProt Q9NTG7) | inactive: 0.079 | inactive: 0.127 |  | inactive: 0.042 | inactive: -0.214 |  | inactive: -0.035 | inactive: 0.026 |  | 
11 | SFT2D3 (UniProt Q587I9) | inactive: 0.055 |  | inactive: -0.015 | inactive: 0.031 |  | inactive: -0.042 | inactive: -0.045 |  | inactive: -0.061 | inactive: -0.197
12 | SFXN4 isoform 3 (UniProt Q6P4A7) | inactive: 0.079 | inactive: 0.12 |  | inactive: 0.165 | inactive: -0.074 | inactive: 0.04 |  | inactive: -0.002 | inactive: -0.139 | inactive: 0.051
13 | SEPTIN10 isoform 2 (UniProt Q9P0V9) | inactive: 0.071 | inactive: 0.004 | inactive: 0.119 | inactive: 0.09 | inactive: 0.013 | inactive: -0.046 |  | inactive: -0.007 | inactive: 0.087 | inactive: 0.084
14 | SGSH (UniProt P51688) | inactive: 0.047 |  |  | inactive: 0.116 |  |  |  |  |  | 
15 | SH2D2A isoform 2 (UniProt Q9NP31) | inactive: -0.127 | inactive: -0.103 |  | inactive: 0.043 | inactive: 0.25 |  |  | inactive: -0.044 |  | 
16 | SH3BGR (UniProt P55822) | inactive: 0.101 | inactive: -0.071 | inactive: -0.177 | inactive: -0.089 | inactive: 0 | inactive: 0.131 |  | inactive: 0.011 |  | 
17 | SF1 isoform 6 (UniProt Q15637) | inactive: 0.067 | inactive: 0.036 | inactive: -0.128 | inactive: 0 | inactive: 0.033 | inactive: -0.129 | inactive: 0.068 | inactive: -0.023 | inactive: -0.054 | inactive: 0.044
18 | SHROOM2 (UniProt Q13796) | inactive: 0.266 | active: -1.03 | inactive: 0.095 | inactive: -0.361 | inactive: 0.069 | inactive: -0.021 |  | inactive: 0.013 | inactive: -0.027 | inactive: 0.303
19 | SELENOM (UniProt Q8WWX9) | inactive: -0.106 |  | inactive: -0.031 | inactive: 0.016 |  |  |  |  |  | 

Row | Target | log2 fold change [1] | log2 fold change [2] | log2 fold change [3] | log2 fold change [4] | log2 fold change [5] | log2 fold change [6] | log2 fold change [7] | log2 fold change [8] | log2 fold change [9] | log2 fold change [10]
20 | SH2D1B (UniProt O14796) | inactive: -0.294 | inactive: -0.059 | inactive: -0.218 | inactive: -0.098 | inactive: 0.057 |  | inactive: -0.228 | inactive: -0.406 | inactive: -0.036 | inactive: 0.028
21 | SERAC1 (UniProt Q96JX3) | inactive: 0.085 |  |  | inactive: -0.15 |  |  |  |  |  | 
22 | SKA3 (UniProt Q8IX90) | inactive: 0.044 |  | inactive: -0.187 | inactive: 0.052 |  | inactive: 0.105 | inactive: -0.122 |  | inactive: 0.121 | inactive: -0.122
23 | SF3B5 (UniProt Q9BWJ5) | inactive: -0.088 | inactive: -0.04 | inactive: 0.319 | inactive: 0.051 | inactive: 0.023 | inactive: 0.199 |  | inactive: 0.107 | inactive: -0.104 | inactive: -0.002
24 | SERF2 (UniProt P84101) | inactive: 0.035 |  | inactive: -0.05 | inactive: 0.042 |  | inactive: 0.076 | inactive: -0.221 |  | inactive: 0.06 | inactive: 0.041
25 | SERINC1 (UniProt Q9NRX5) | inactive: -0.034 | inactive: -0.023 | inactive: -0.006 | inactive: 0.096 | inactive: -0.026 | inactive: 0.085 | inactive: 0.018 | inactive: 0.149 | inactive: 0.115 | inactive: -0.031
26 | SIK3 (UniProt H0Y4E8) | inactive: -0.074 | inactive: 0.045 |  | inactive: 0.094 | inactive: 0.074 |  | inactive: -0.163 | inactive: -0.099 | inactive: 0.051 | inactive: 0.15
27 | SGPP1 (UniProt Q9BX95) | inactive: 0.003 | inactive: -0.071 | inactive: -0.02 | inactive: -0.011 | inactive: 0.04 | inactive: -0.106 |  | inactive: -0.041 | inactive: -0.069 | inactive: 0.098
28 | SEPTIN7 isoform 2 (UniProt Q16181) | inactive: 0.068 | inactive: 0.091 |  | inactive: -0.002 | inactive: -0.172 |  |  | inactive: 0.101 | inactive: -0.172 | inactive: -0.08
29 | SELENOK (UniProt Q9Y6D0) | inactive: -0.11 | inactive: -0.071 | inactive: -0.031 | inactive: 0.057 | inactive: 0.045 | inactive: 0.087 |  | inactive: 0.049 | inactive: -0.087 | inactive: 0.117
30 | SIAH1 isoform 2 (UniProt Q8IUQ4) | inactive: 0.053 | inactive: 0.039 | inactive: -0.011 | inactive: -0.047 | inactive: -0.016 | inactive: 0.201 |  | inactive: 0.037 | inactive: -0.037 | inactive: -0.027
31 | SIGIRR (UniProt H0YDR5) | inactive: 0.181 |  |  | inactive: -0.122 |  |  |  |  |  | 
32 | SERPINC1 (UniProt P01008) | inactive: -0.2 | inactive: -0.075 | inactive: -0.04 | inactive: 0.166 | inactive: 0.18 | inactive: -0.091 | inactive: -0.027 | inactive: -0.075 | inactive: 0.231 | inactive: 0.318
33 | SERPIND1 (UniProt P05546) | inactive: -0.239 |  | inactive: 0.024 | inactive: 0.128 |  |  |  |  |  | 
34 | SH3PXD2B (UniProt A1X283) | inactive: 0 | inactive: -0.036 | inactive: -0.013 | inactive: -0.153 | inactive: 0.04 | inactive: -0.012 |  | inactive: 0.04 | inactive: -0.034 | inactive: 0.132
35 | SETDB1 (UniProt Q15047) | inactive: 0.22 | inactive: -0.294 | inactive: -0.022 | inactive: -0.003 | inactive: 0.158 |  | inactive: 0.135 | inactive: 0.092 | inactive: -0.015 | inactive: 0.208
36 | SH3BP1 (UniProt Q9Y3L3) | inactive: 0.017 | inactive: 0.035 | inactive: 0.046 | inactive: 0.027 | inactive: 0.05 | inactive: 0.026 | inactive: 0.017 | inactive: -0.008 | inactive: -0.025 | inactive: 0.03
37 | SELENOP (UniProt P49908) | inactive: -0.058 |  |  | inactive: 0.187 |  | inactive: -0.064 |  |  |  | 

A different layout for some results above.
Row	Target	log2 fold change [1]	log2 fold change [2]	log2 fold change [3]	log2 fold change [4]	log2 fold change [5]	log2 fold change [6]	log2 fold change [7]	log2 fold change [8]	log2 fold change [9]	log2 fold change [10]
16	SH3BGR (UniProt P55822)	inactive: 0.101	inactive: -0.071	inactive: -0.177	inactive: -0.089	inactive: 0	inactive: 0.131		inactive: 0.011		
17	SF1 isoform 6 (UniProt Q15637)	inactive: 0.067	inactive: 0.036	inactive: -0.128	inactive: 0	inactive: 0.033	inactive: -0.129	inactive: 0.068	inactive: -0.023	inactive: -0.054	inactive: 0.044
18	SHROOM2 (UniProt Q13796)	inactive: 0.266	active: -1.03	inactive: 0.095	inactive: -0.361	inactive: 0.069	inactive: -0.021		inactive: 0.013	inactive: -0.027	inactive: 0.303
